Measurements: PubChem BioAssay AID651640 (Broad Institute, 2012)
In all, about 350,000 compounds went through this assay and about 6,000 (1.7%) were called active. Inconclusive results, whose numbers are uncertain, are shown with a selection of clear calls. Rule as the data show it: active = CPE inhibition above about 20% (passing the limit was not always enough); inconclusive = no clear call, values can overlap the other calls; tested in BHK-21 cells.

Assay: protection of cells from dengue 2 killing – plate reader, single concentration, primary screen (AID 651640);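 also: 0% = median of neutral control wells and 100% = median of positive control wells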
Settings: DENV2-infected cells, cytopathic effect rescue, at 9.99 µM, hits give high values

Structure (SMILES) | CPE inhibition
C[C@@H]1CN([C@@H](C)CO)C(=O)Cc2cc(NC(=O)Nc3ccc(C(F)(F)F)cc3)ccc2O[C@H]1CN(C)Cc1ccc(C(=O)O)cc1 | active: 30.9%
CN1C(=O)c2cc(NC(=O)C3CCCC3)ccc2OC[C@H]2O[C@@H](CC(=O)NCC3CC3)CC[C@H]21 | inactive: -2.3%
CCOC(=O)N1CCN(C(c2ccc(C)cc2)c2sc3nc(C)nn3c2O)CC1 (configuration not stated) | inconclusive: 33.4%
O=C(NC1CCN(Cc2ccc(Cl)cc2Cl)CC1)c1ccccc1 | inconclusive: 25.5%
C/C=C/c1ccc2c(c1)O[C@H](CN(C)C(=O)Cc1cccnc1)[C@H](C)CN([C@H](C)CO)S2(=O)=O | inactive: -3.72%
Cc1noc(C)c1NC(=O)Nc1ccc2c(c1)C(=O)N([C@H](C)CO)C[C@H](C)[C@@H](CN(C)C(=O)Nc1ccc(F)cc1)O2 | inconclusive: 57.1%
O=Cc1cccn1-c1ccccc1 | inconclusive: 56.4%
O=C(C[C@H]1C[C@@H]2c3cc(NC(=O)CC4CC4)ccc3O[C@@H]2[C@H](CO)O1)NCc1ccc(-c2ccccc2)cc1 | inactive: -2.73%
O=C(CCN1CCCCC1)NCC[C@H]1CC[C@H](NC(=O)C2CCOCC2)[C@@H](CO)O1 | inactive: 4.11%
CCN(CC)C(=O)C1=C(C)N(CCCN2CCCC2=O)C(=O)C(CC(=O)NCCCN(C)C)C1 (configuration not stated) | inconclusive: 86.5%
Cc1ccc(-n2ncc3c2CC(C)(C)CC3NC(=O)CCc2ccc(=O)[nH]n2)cc1 (configuration not stated) | inconclusive: 43.2%
C[C@@H]1CN([C@@H](C)CO)C(=O)c2cc(NS(=O)(=O)c3cccs3)ccc2O[C@@H](C)CCCCO[C@@H]1CN(C)C | active: 20.4%
CC(C)NC(=O)N(C)C[C@@H]1OCCCC[C@@H](C)Oc2ccc(NC(=O)Nc3ccc(C(F)(F)F)cc3)cc2C(=O)N([C@@H](C)CO)C[C@@H]1C | inconclusive: 29.3%
CO[C@H]1CN(C)C(=O)c2ccc(NC(=O)C3CC3)cc2OC[C@H](C)N(CC2CCCC2)C[C@H]1C | inconclusive: 58.3%
CC(C)(C)N(Cc1ccccc1)C(=O)CCc1ccccc1 | inconclusive: 46.9%
C=CCOC(=O)c1oc(COC[C@@H](NC(=O)N(C)Cc2ccccc2)c2ccccc2)c(C(=O)OC)c1C(=O)OC | inactive: 13.7%
COc1cccc(CNC(=O)CCS(=O)(=O)Cc2ccc(C)cc2)c1 | inconclusive: 29.4%
O=C(C[C@H]1CC[C@H]2[C@@H](COC[C@H](O)CN2S(=O)(=O)c2cccc(Cl)c2)O1)N1CCOCC1 | active: 21.2%
CCCN(C)C[C@@H]1OCCCC[C@H](C)Oc2ccc(NS(=O)(=O)c3ccc(C)cc3)cc2C(=O)N([C@@H](C)CO)C[C@H]1C | inactive: -9.39%
Cn1c(NC(=O)C2CC2)cc(=O)n(C)c1=O | inactive: 9.85%
COc1ccc(OCC(O)CNC(=O)c2ccccc2)cc1 (configuration not stated) | inactive: 3.88%
Cc1cc2cc(C#N)c(N3CCOCC3)nc2cc1Cl | inconclusive: 37.4%
O=C1CCC(=O)N1c1ccccc1 | inconclusive: 31.6%
O=C(CN1CCN(C(=O)C2CCCO2)CC1)Nc1c(Cl)cccc1Cl (configuration not stated) | inconclusive: 35.2%

Structure (SMILES) | CPE inhibition
CC(C)NC(=O)N(C)C[C@H]1Oc2ccc(NS(=O)(=O)c3ccc(F)cc3)cc2CC(=O)N([C@@H](C)CO)C[C@@H]1C | inconclusive: 21.3%
N#C[C@H]1[C@@H](c2ccc(C#CC3CC3)cc2)[C@@H](CO)N1S(=O)(=O)c1ccccc1 | inactive: 4.62%
C[C@@H]1CCCCO[C@@H](CN(C)Cc2ccccc2)[C@H](C)CN([C@H](C)CO)C(=O)c2cc(NC(=O)c3ccccc3)ccc2O1 | active: 23.6%
COc1ccccc1C(=O)Nc1ccc(S(=O)(=O)N(C)c2ccccc2)cc1 | inconclusive: 36%
O=[S@]1Oc2ccccc2-c2ccccc21 | active: 67.5%
CCOC(=O)C1(C)CCCN(C(=O)c2cccnc2)C1 (configuration not stated) | inconclusive: 30.1%
CCC1C(=NO)C(CC)C(c2ccccc2)NC1c1ccccc1 (configuration not stated) | inconclusive: 21.8%
COc1cccc(-c2ccc3c(c2)O[C@@H](CN(C)Cc2cccnc2)[C@H](C)CN([C@H](C)CO)S3(=O)=O)c1 | inactive: -4.56%
COCCCn1cc(CN2CC(N(C)C)CS2(=O)=O)nn1 (configuration not stated) | inconclusive: 25.3%
Cc1noc(C)c1NC(=O)Nc1cccc2c1O[C@H](CN(C)C)[C@@H](C)CN([C@@H](C)CO)C2=O | inconclusive: 23.3%
COc1ccc([Si](C)(C)[C@@H]2[C@@H](CCn3cc([C@H](O)c4ccccc4)nn3)O[C@]3(C(=O)N(Cc4ccc(N5CCC5=O)cc4)c4ccccc43)[C@H]2C)cc1 | inconclusive: 41.1%
CC[C@@H](C)[C@H](CN[C@H](CNC)C(C)C)NC[C@@H](C)c1ccc(CC(C)C)cc1 | inconclusive: 24.5%
O=C(c1ccccc1)N1CC[C@@H]2[C@H]1c1cc(C#Cc3cccc(F)c3)ccc1N[C@@H]2CO | active: 42.6%
O=C1CN(C(=O)COC(=O)c2c(F)cccc2Cl)c2ccccc2N1 | active: 25.7%
CCCC#Cc1ccc2c(c1)O[C@H](CN(C)S(=O)(=O)c1cccc(F)c1)[C@@H](C)CN([C@@H](C)CO)S2(=O)=O | inactive: -10.7%
Cc1occc1C(=O)NNC(=O)CN1C(=O)NC2(CCCCC2)C1=O | inconclusive: 20.6%
Cc1noc(C)c1S(=O)(=O)Nc1ccc2c(c1)C(=O)N([C@H](C)CO)C[C@H](C)[C@@H](CN(C)S(=O)(=O)c1ccc(Cl)cc1)O2 | inactive: -5.93%
COc1cccc(CC2(CO)CCN(Cc3cn(C)nc3C)CC2)c1 | inconclusive: 42%
C[C@@H]1CN([C@H](C)CO)C(=O)c2cccc(NC(=O)CCCCCC(=O)Nc3ccccc3N)c2O[C@H]1CN(C)Cc1ccc2c(c1)OCO2 | inactive: -4.79%
COCC(=O)N1CC(=O)N2[C@H](C1)[C@@H](c1ccc(C#CCc3ccccc3)cc1)[C@@H]2CO | inconclusive: 24.8%
CCCC[C@H]1COCCS(=O)(=O)N1Cc1ccc(Br)cc1 | inconclusive: 23.1%
CCCc1cc(=O)[nH]c(SCC(=O)c2c(N)n(CC(C)C)c(=O)n(C)c2=O)n1 | inconclusive: 56.2%
CO[C@@H]1CN(C)C(=O)c2cc(NS(=O)(=O)c3ccccc3C)ccc2OC[C@@H](C)N(S(=O)(=O)c2ccccc2)C[C@H]1C | inactive: 6.12%
O=c1oc2ccc(C#CC3(O)CCCCC3)cc2cc1-n1cc(-c2ccsc2)nn1 | inconclusive: 30.1%

Structure (SMILES) | CPE inhibition
COc1ccnc(Oc2ccccc2)n1 | inconclusive: 20.8%
CC(/C=N\N1CCN(Cc2ccc(C)cc2)CC1)=C\c1ccccc1 | inactive: 0.222%
Cc1cccc(C)c1NC(=O)C1c2ccccc2OCC(=O)N1CCc1c[nH]c2ccccc12 (configuration not stated) | inconclusive: 29.4%
COc1ccccc1NC(=O)C[C@H]1CC[C@H]2[C@@H](COc3ccc(NC(=O)C(C)C)cc3C(=O)N2C)O1 | inconclusive: 43.2%
CCc1nc2ccc(C(=O)N3CCCC(C(N)=O)C3)cn2c1N(C=O)CC (configuration not stated) | active: 26.5%
COc1cc(/C=C2/N=C(c3ccccc3)OC2=O)c(F)cc1OCc1ccccc1 | inconclusive: 38.4%
O=C(O)CCC1OC(=O)C(O)=C1c1ccccc1 (configuration not stated) | inconclusive: 55%
O=C1NC[C@@H](CCCCN2C[C@H](Cc3ccc(O)cc3)N(CCc3ccc(O)cc3)C(=O)C2=O)N(CC2CCCCC2)C1=O | inactive: -2.71%
C=C1C(=O)[C@]23C[C@H]1CCC2[C@@]1(C)C(C[C@@H]3O)[C@](C)(C(=O)O)CC[C@@H]1O (some centres not stated) | active: 74.8%
C[C@@H](NC(=O)C[C@H]1C[C@@H]2c3cc(NC(=O)NC4CCCC4)ccc3O[C@@H]2[C@@H](CO)O1)c1ccccc1 | inactive: 0.705%
O=C(C[C@H]1CC[C@@H](NC(=O)c2cccc(F)c2)[C@H](CO)O1)NCc1ccccc1 | inactive: 1.41%
O=C(C[C@H]1CC[C@H]2[C@@H](COC[C@@H](O)CN2S(=O)(=O)c2ccc(Cl)cc2)O1)N[C@H]1CCN(Cc2ccccc2)C1 | inconclusive: 54%
O=c1[nH]c(=O)n([C@H]2C[C@H](O)[C@@H](CO)O2)cc1C(F)(F)F | inactive: 6.36%
Cc1cc(C)c(S(=O)(=O)NCC(=O)NCc2cc(=O)n(C)c(=O)n2C)c(C)c1 | inconclusive: 20.9%
Cc1cnc(C(=O)OCC(=O)NC(C)c2ccccc2)cn1 (configuration not stated) | inconclusive: 37.9%
CN(C)c1ccc(C=c2c3ccccc3n3c2cc(-c2ccccc2)[n+]3C)cc1 | inactive: -0.546%
CCCC#Cc1ccc2c(c1)O[C@H](CN(C)C(=O)Nc1ccc(OC)cc1)[C@@H](C)CN([C@@H](C)CO)S2(=O)=O | inconclusive: 28.3%
Cc1cccc(C)c1-n1nnnc1C(c1ccnc2ccccc12)N1CCN(c2ccccc2F)CC1 (configuration not stated) | inconclusive: 55.8%
COc1ccc(C(=O)NCCCc2ccccc2)cc1OC | inconclusive: 23.4%
CC(C)(C)[S@](=O)N1Cc2cc(C(=O)N3CCCCC3)nc(-c3cccc(Br)c3)c2[C@@H]1CCO | active: 41.3%
Cc1ccc2c(=O)n3c(nc2c1)C(Cc1ccccc1)NC(=O)c1ccc(Cl)cc1-3 (configuration not stated) | inconclusive: 64.9%
CCOC(=O)c1sc(=S)n(C)c1NC(=O)c1cccc(Br)c1 | inactive: 2.39%
CSCCC1NC(=O)N(CC(=O)Nc2ccc(Cl)c(S(=O)(=O)N3CCOCC3)c2)C1=O (configuration not stated) | inactive: 1.87%
C[C@@H]1CN([C@@H](C)CO)C(=O)c2cc(NC(=O)CCCN(C)C)ccc2O[C@@H](C)CCCCO[C@H]1CN(C)C(=O)Cc1ccccc1 | inactive: 4.87%

Arranged by formula weight (rising): 20 of the compounds above
Structure (SMILES) | CPE inhibition
O=C(O)CCC1OC(=O)C(O)=C1c1ccccc1 (configuration not stated) | inconclusive: 55%
O=c1[nH]c(=O)n([C@H]2C[C@H](O)[C@@H](CO)O2)cc1C(F)(F)F | inactive: 6.36%
COc1ccc(C(=O)NCCCc2ccccc2)cc1OC | inconclusive: 23.4%
CC(/C=N\N1CCN(Cc2ccc(C)cc2)CC1)=C\c1ccccc1 | inactive: 0.222%
C=C1C(=O)[C@]23C[C@H]1CCC2[C@@]1(C)C(C[C@@H]3O)[C@](C)(C(=O)O)CC[C@@H]1O (some centres not stated) | active: 74.8%
CCc1nc2ccc(C(=O)N3CCCC(C(N)=O)C3)cn2c1N(C=O)CC (configuration not stated) | active: 26.5%
CN(C)c1ccc(C=c2c3ccccc3n3c2cc(-c2ccccc2)[n+]3C)cc1 | inactive: -0.546%
O=C(C[C@H]1CC[C@@H](NC(=O)c2cccc(F)c2)[C@H](CO)O1)NCc1ccccc1 | inactive: 1.41%
CCOC(=O)c1sc(=S)n(C)c1NC(=O)c1cccc(Br)c1 | inactive: 2.39%
COc1cc(/C=C2/N=C(c3ccccc3)OC2=O)c(F)cc1OCc1ccccc1 | inconclusive: 38.4%
Cc1cc(C)c(S(=O)(=O)NCC(=O)NCc2cc(=O)n(C)c(=O)n2C)c(C)c1 | inconclusive: 20.9%
Cc1ccc2c(=O)n3c(nc2c1)C(Cc1ccccc1)NC(=O)c1ccc(Cl)cc1-3 (configuration not stated) | inconclusive: 64.9%
Cc1cccc(C)c1NC(=O)C1c2ccccc2OCC(=O)N1CCc1c[nH]c2ccccc12 (configuration not stated) | inconclusive: 29.4%
CSCCC1NC(=O)N(CC(=O)Nc2ccc(Cl)c(S(=O)(=O)N3CCOCC3)c2)C1=O (configuration not stated) | inactive: 1.87%
Cc1cccc(C)c1-n1nnnc1C(c1ccnc2ccccc12)N1CCN(c2ccccc2F)CC1 (configuration not stated) | inconclusive: 55.8%
CC(C)(C)[S@](=O)N1Cc2cc(C(=O)N3CCCCC3)nc(-c3cccc(Br)c3)c2[C@@H]1CCO | active: 41.3%
CCCC#Cc1ccc2c(c1)O[C@H](CN(C)C(=O)Nc1ccc(OC)cc1)[C@@H](C)CN([C@@H](C)CO)S2(=O)=O | inconclusive: 28.3%
O=C(C[C@H]1CC[C@H]2[C@@H](COC[C@@H](O)CN2S(=O)(=O)c2ccc(Cl)cc2)O1)N[C@H]1CCN(Cc2ccccc2)C1 | inconclusive: 54%
O=C1NC[C@@H](CCCCN2C[C@H](Cc3ccc(O)cc3)N(CCc3ccc(O)cc3)C(=O)C2=O)N(CC2CCCCC2)C1=O | inactive: -2.71%
C[C@@H]1CN([C@@H](C)CO)C(=O)c2cc(NC(=O)CCCN(C)C)ccc2O[C@@H](C)CCCCO[C@H]1CN(C)C(=O)Cc1ccccc1 | inactive: 4.87%
